Our source for the binding values is PMC8632689.

Chains of the proteins cited; added tags and fusions are not shown.
UniProt Q15910: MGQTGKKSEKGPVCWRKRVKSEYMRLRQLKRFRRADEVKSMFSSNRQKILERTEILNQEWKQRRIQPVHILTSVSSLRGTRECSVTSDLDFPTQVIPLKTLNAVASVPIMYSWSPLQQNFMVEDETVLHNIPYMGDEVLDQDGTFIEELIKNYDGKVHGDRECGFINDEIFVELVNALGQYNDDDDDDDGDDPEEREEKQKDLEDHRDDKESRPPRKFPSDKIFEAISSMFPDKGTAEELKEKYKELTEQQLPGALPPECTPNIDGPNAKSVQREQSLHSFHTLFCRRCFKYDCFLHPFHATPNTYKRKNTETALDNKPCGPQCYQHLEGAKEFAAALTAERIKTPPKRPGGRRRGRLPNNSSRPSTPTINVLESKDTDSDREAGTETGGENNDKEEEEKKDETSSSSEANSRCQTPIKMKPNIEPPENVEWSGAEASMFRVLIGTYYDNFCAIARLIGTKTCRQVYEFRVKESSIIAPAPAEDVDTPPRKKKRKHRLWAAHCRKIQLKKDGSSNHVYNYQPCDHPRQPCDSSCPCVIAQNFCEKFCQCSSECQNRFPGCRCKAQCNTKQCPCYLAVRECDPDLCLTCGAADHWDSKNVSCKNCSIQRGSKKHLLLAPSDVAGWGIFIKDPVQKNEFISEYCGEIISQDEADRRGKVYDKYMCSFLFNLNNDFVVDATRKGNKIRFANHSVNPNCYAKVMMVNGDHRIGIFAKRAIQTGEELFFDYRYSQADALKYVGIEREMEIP
UniProt P40763: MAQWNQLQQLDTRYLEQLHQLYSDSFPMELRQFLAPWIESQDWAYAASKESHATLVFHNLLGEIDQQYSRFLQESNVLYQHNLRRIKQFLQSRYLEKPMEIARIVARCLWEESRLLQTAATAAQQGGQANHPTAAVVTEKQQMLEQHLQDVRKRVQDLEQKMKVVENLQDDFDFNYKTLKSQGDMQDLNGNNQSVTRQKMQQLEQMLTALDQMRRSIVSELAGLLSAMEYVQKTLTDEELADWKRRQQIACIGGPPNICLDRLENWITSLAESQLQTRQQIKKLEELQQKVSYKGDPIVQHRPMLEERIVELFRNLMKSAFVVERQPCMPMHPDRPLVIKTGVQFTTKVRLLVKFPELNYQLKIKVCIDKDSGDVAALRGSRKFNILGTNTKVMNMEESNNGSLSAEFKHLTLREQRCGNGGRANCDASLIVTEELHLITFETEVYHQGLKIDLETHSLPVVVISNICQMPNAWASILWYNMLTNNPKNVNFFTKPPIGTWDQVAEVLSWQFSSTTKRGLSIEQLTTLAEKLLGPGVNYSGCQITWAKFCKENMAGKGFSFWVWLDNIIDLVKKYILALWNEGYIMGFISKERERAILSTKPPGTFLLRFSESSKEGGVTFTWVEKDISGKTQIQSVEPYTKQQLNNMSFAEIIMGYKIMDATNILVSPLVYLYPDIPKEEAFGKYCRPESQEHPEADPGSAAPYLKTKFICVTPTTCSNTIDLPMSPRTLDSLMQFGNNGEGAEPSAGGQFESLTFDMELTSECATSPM

No constants are given. Whether binding was seen depends on the method and setting. In cells and extracts the contact can be indirect. Some binding calls cover weakened binding; strength is not graded here.

The test concerns the target EZH2 (human (endogenous in primary CD8+ T cells)) (UniProt Q15910). Put plainly: co-IP; nuclear protein lysates of CD8+ T cells of healthy controls cultured with IL-6, IL-15, MCP-1 or IL-15 plus MCP-1 in RPMI1640 for 12 h; Co-IP with antibody against STAT3, DNMT1, HDAC1 or EZH2; rabbit IgG isotype control as negative control; blots with the indicated antibodies.

Consider STAT3 (from UniProt P40763 1-770), for which the binding entry is recorded as “binds”.
